Reference: PubChem BioAssay AID1347076 (National Center for Advancing Translational Sciences (NCATS), 2019)
The whole screen tested about 400,000 compounds, of which about 13,000 (3.2%) were called active. Inconclusive means that the source gave no clear call. Such entries were picked first, then a sample of the others. The call rests on the fitted dose curve; in most records, active means well fitted cell-killing curve with a large enough effect; inconclusive means small, poorly fitted or top-dose-only effect, or effect the other way; inactive means flat fitted curve, though single readings scatter. A potency beside an inconclusive call is a rough fit, not a confirmed value.

Assay: qHTS assay for MDR1-selective chemotherapeutics: Primary screen using the drug-selected MDR subline cells KB-V1; further: nearly all actives have a fitted effect of over 60% in size
Conditions: KB-V1 MDR cells viability, CellTiter-Glo, 72 h; activity change, negative = cytotoxicity: at 46.1 µM (top of the series)
Procedure, shortened: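 Luminescent ATP read-out (CellTiter-Glo, 10 min) measures survival of drug-selected KB-V1 MDR cells after 72 h, 37 degrees C compound exposure. Medium: phenol-red-free DMEM, 10% FBS. Values from fitted concentration-response curves.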
On the % scale 0 is the no-effect control and ±100 the full control effect; potency means the concentration at half of the fitted maximal effect.

Row | SMILES | Potency | activity change, negative = cytotoxicity
1 | Cc1ccc(-c2nnc(OCC3CCCO3)c3ccccc23)cc1 (stereo unspecified) | inconclusive: 9.2 µM [cytotoxic, partial curve] | 
2 | Nc1ccc(/C=C/c2cc(Cl)nc3ccccc23)cc1 | inconclusive: 20.6 µM [cytotoxic, single point] | 
3 | Cc1nn(-c2ccccn2)c2c1-c1nc(N3CCOCC3)ncc1CC2 | active: 18.4 µM | 
4 | COc1ccc(CCC(=O)Nc2ccc(C)c(S(=O)(=O)N(C)C)c2)cc1OC | inconclusive: 20.6 µM [cytotoxic, partial curve, poor fit] | 
5 | Cc1ccc(C(=O)Nc2nc(-c3ccc([N+](=O)[O-])cc3)cs2)o1 | inactive | 
6 | CCc1sc(-c2cc3cccc(OC)c3oc2=O)nc1-c1ccccc1 | inconclusive: 0.259 µM [rising, partial curve, poor fit] | 
7 | O=C(NCCc1c[nH]c2ccc(Cl)cc12)c1cccnc1 | inconclusive: 29.1 µM [cytotoxic, single point] | 
8 | CC1=CC(=O)C=C(C)C1=NOC(=O)c1cccc([N+](=O)[O-])c1 | inconclusive: 14.6 µM [rising, partial curve, poor fit] | 
9 | S=c1[nH]nc(C2CCCCC2)n1/N=C/c1c(Cl)cccc1Cl | inactive | 
10 | CCOc1ccc(CNC(=O)C2CCCN(S(=O)(=O)c3ccc4c(ccn4C)c3)C2)cc1 (stereo unspecified) | inconclusive: 11.6 µM [cytotoxic, partial curve, poor fit] | 
11 | O=S(Cc1ccc(Br)cc1)Cc1nnc(SCc2ccc(Br)cc2)n1-c1ccccc1 (stereo unspecified) | active: 2.91 µM | 
12 | COc1ccc(C2=NOC(Cn3nc(-c4ccccc4)cc3C(=O)NCc3cccc(Br)c3)C2)cc1 (stereo unspecified) | inconclusive: 16.4 µM [rising, single point] | 
13 | Cc1nn(CC(=O)NCCc2ccccc2)c(=O)c2ccccc12 | inactive | 
14 | CCN(CC(=O)Nc1ccccc1C(F)(F)F)C(=O)c1cc(-c2cccs2)nn1-c1ccccc1 | inconclusive: 3.66 µM [cytotoxic, partial curve, poor fit] | 
15 | Cc1cccc(C)c1NS(=O)(=O)c1ccc(NC(=O)c2ccc(Cl)c([N+](=O)[O-])c2)cc1 | inconclusive: 14.6 µM [rising, single point] | 
16 | CCN1CCN(c2cc(N3CCc4ccccc4C3)c(F)cc2[N+](=O)[O-])CC1 | inconclusive: 9.2 µM [cytotoxic, partial curve] | 
17 | COc1cc(C2C(C#N)=C(N)N(c3cccnc3)C3=C2C(=O)CCC3)ccc1O (stereo unspecified) | inactive | 
18 | COc1ccccc1C(=O)NNC(=O)c1sccc1-n1cccc1 | inactive | 
19 | COc1ccc(CCNC(=O)C(=O)c2cn(CC(=O)N3CCOCC3)c3ccccc23)cc1OC | inconclusive: 20.6 µM [rising, partial curve, poor fit] | 
20 | Cc1ccc2c(c1)cc(CN(Cc1ccco1)C(=O)COc1ccccc1)c1nnnn12 | inconclusive: 7.31 µM [cytotoxic, partial curve, poor fit] | 
21 | COc1ccc(C(=O)N2CCN(C(=O)C3CCCO3)CC2)cc1[N+](=O)[O-] (stereo unspecified) | inconclusive: 16.4 µM [rising, single point] | 
22 | Cc1ccc(C)c(CSc2ccc3nnc(-c4ccccn4)n3n2)c1 | inconclusive: 18.4 µM [cytotoxic, single point] | 
23 | COc1ccc(CNC(=O)CC(C)S(=O)(=O)c2ccc3c(c2)NC(=O)CO3)cc1 (stereo unspecified) | inconclusive: 18.4 µM [rising, single point] | 
24 | c1ccc(CSCc2nc3ccccc3[nH]2)cc1 | inconclusive: 18.4 µM [cytotoxic, single point] | 

Row | SMILES | Potency | activity change, negative = cytotoxicity
25 | CSc1ccccc1NC(=O)CN(C)Cc1cc(=O)n2ccsc2n1 | inconclusive: 20.6 µM [cytotoxic, single point] | 
26 | COc1cccc(-c2cc(C(=O)Nc3cc(Cl)ccc3O)on2)c1 | inactive | 
27 | COc1cccc(C(CC(=O)Nc2cccc3ccccc23)NC(=O)c2ccccc2)c1 (stereo unspecified) | active: 5.8 µM | 
28 | CC(=O)N1CCN(C(=O)c2ccc(S(=O)(=O)Nc3ccccc3F)cc2)CC1 | inconclusive: 29.1 µM [rising, single point] | 
29 | Cc1ccc(CCNC(=O)CCCn2nc(C)c3c(C)n(-c4ccccc4)nc3c2=O)cc1 | inactive | 
30 | COc1ccc(-c2csc(Nc3ccc(C)cn3)n2)cc1 | inconclusive: 18.4 µM [cytotoxic, single point] | 
31 | COc1ccc(N(C)S(=O)(=O)c2cccc(C(=O)NC3CCCCCC3)c2)cc1 | inconclusive: 7.31 µM [cytotoxic, partial curve] | 
32 | CCCNC(=O)c1cccc(Cn2nc(C)c(Br)c2C)c1 | inconclusive: 23.1 µM [cytotoxic, partial curve, poor fit] | 
33 | O=S(=O)(NC1CC1)c1ccc(S(=O)(=O)N2CCN3CCCC3C2)cc1 (stereo unspecified) | inactive | 
34 | CCCOc1ccc(CCC(=O)N/N=C/c2ccc([N+](=O)[O-])o2)cc1 | inconclusive: 25.9 µM [cytotoxic, single point] | 
35 | O=C(CN1CCCCC1)NC(=O)NC1CCCCC1 | inconclusive: 0.0052 µM [cytotoxic, full curve, poor fit] | 
36 | CCNC(=S)N(CCCO)Cc1cc2cc3c(cc2[nH]c1=O)OCCO3 | inconclusive: 29.1 µM [rising, single point] | 
37 | CC(NC(=O)c1ccccc1)C(=O)Nc1ccccc1 (stereo unspecified) | inconclusive: 29.1 µM [rising, single point] | 
38 | O=C(NCc1ccccn1)c1cn(-c2ccccc2)nc1-c1ccc(Cl)cc1 | active: 3.66 µM | 
39 | CSc1ccc(C(=O)/C=C/c2ccc(N)cc2)cc1 | inconclusive: 29.1 µM [cytotoxic, single point] | 
40 | COc1ccc2ccccc2c1/C=N/NC(=O)c1nnn(-c2nonc2N)c1C(C)C | inconclusive: 0.291 µM [cytotoxic, full curve] | 
41 | NC(=O)CC(NC(=O)c1ccccc1)c1ccc(N2CCC(Cc3ccccc3)CC2)c([N+](=O)[O-])c1 (stereo unspecified) | inconclusive: 0.0082 µM [rising, full curve, poor fit] | 
42 | CCOc1ccc(CCNC(=O)Cn2nc(C)n3c(cc4occc43)c2=O)cc1OCC | inactive | 
43 | COc1cccc(C(O)c2nc3ccccc3n2C(C)C)c1 (stereo unspecified) | inconclusive: 25.9 µM [cytotoxic, partial curve, poor fit] | 
44 | COc1ccc(CC(=O)n2nc(-c3cccnc3)nc2N)cc1 | inconclusive: 4.61 µM [rising, partial curve, poor fit] | 
45 | Cc1cc(NC(=O)CSc2nc(=O)n(CCN(C)C)c3c2CCCC3)no1 |  | inconclusive: 33.6%
46 | Cc1ccc(C)c(OCCn2c(-c3ccc(Cl)cc3)nc3ccccc3c2=O)c1C | inconclusive: 18.4 µM [rising, single point] | 
47 | CC(C)COc1ccc(CNC(=S)NCc2ccccc2)cc1 | inconclusive: 23.1 µM [cytotoxic, single point] | 
48 | Cc1sc2ncnc(SCC(=O)Nc3cccc(S(N)(=O)=O)c3)c2c1C | inactive | 

Record cards, as listed above.
`CSc1ccc(C(=O)/C=C/c2ccc(N)cc2)cc1` reads Potency: inconclusive: 29.1 µM [cytotoxic, single point]
`NC(=O)CC(NC(=O)c1ccccc1)c1ccc(N2CCC(Cc3ccccc3)CC2)c([N+](=O)[O-])c1` (stereo unspecified) reads Potency: inconclusive: 0.0082 µM [rising, full curve, poor fit]
`COc1cccc(-c2cc(C(=O)Nc3cc(Cl)ccc3O)on2)c1` reads Potency: inactive
`COc1ccc(CCNC(=O)C(=O)c2cn(CC(=O)N3CCOCC3)c3ccccc23)cc1OC` reads Potency: inconclusive: 20.6 µM [rising, partial curve, poor fit]

Carrying on:

Row | SMILES | Potency | activity change, negative = cytotoxicity
49 | Cc1ccccc1C(O)c1ccncc1 (stereo unspecified) | inactive | 
50 | O=C(CCl)Nc1cccc(-c2cnc3ccccc3n2)c1 | active: 13 µM | 
51 | N#Cc1c(NC(=O)CCN2C(=O)c3ccccc3C2=O)oc(-c2ccccc2)c1-c1ccccc1 | inactive | 
52 | O=C(c1cccn2c(=O)c3cc(Br)ccc3nc12)N1CCN(c2ccccn2)CC1 | inactive | 
53 | CCn1c(COc2cccc(C)c2)nnc1SCC(=O)CC(=O)Nc1ccccc1OC | inactive | 
54 | O=C(NCCCn1cccn1)C1CCC(=O)N(Cc2ccccc2F)C1 (stereo unspecified) | inconclusive: 29.1 µM [rising, single point] | 
55 | O=C(Nc1ccccc1Oc1ccccc1)c1cccc([N+](=O)[O-])c1 | active: 18.4 µM | 
56 | COCc1cc(=O)n2c([nH]c3ccccc32)c1C#N |  | inconclusive: 9.85%
57 | COC(=O)c1ccc(N2CCN(C)CC2)c(NC(=O)c2cc3ccccc3o2)c1 | active: 3.26 µM | 
58 | CCCC(C)NNC(=O)c1cc2ccccc2[nH]1 (stereo unspecified) | inactive | 
59 | Cc1cc(C)cc(NC(=O)Cn2nnc(C(=O)NCc3ccc4c(c3)OCO4)c2N)c1 | inactive | 
60 | Nc1cc(C(=O)c2cccs2)ccc1Cl | inconclusive: 18.4 µM [rising, single point] | 
61 | Cc1cccc(OC(C)C(=O)Nc2ncn[nH]2)c1 (stereo unspecified) | inactive | 
62 | CN(CC(=O)Nc1ccccc1Cl)C(=O)C1CCN(S(=O)(=O)c2ccc3c(c2)OCCO3)CC1 | inconclusive: 20.6 µM [cytotoxic, single point] | 
63 | Cc1ccc(S(=O)(=O)N(CC(O)Cn2c3ccccc3c3ccccc32)c2cccc(C(N)=O)c2)cc1 (stereo unspecified) | inconclusive: 25.9 µM [cytotoxic, single point] | 
64 | O=C(c1ccccc1)c1cc(-c2ccccn2)c(N2CCOCC2)s1 | active: 8.2 µM | 
65 | CCCC(=O)N1CCN(c2ccc(NC(=O)c3cccs3)cc2)CC1 | inconclusive: 4.61 µM [cytotoxic, full curve, poor fit] | 
66 | COc1ccc(S(=O)(=O)N2c3ccc(F)cc3CCC2C)cc1 (stereo unspecified) | active: 1.64 µM | 
67 | O=C(NCCOc1cccc(Oc2ccccc2)c1)c1cc(-n2cnnc2)ccc1Cl | active: 16.4 µM | 
68 | COCCNC(=O)c1cnn2c1NC(c1ccco1)CC2C(F)(F)F (stereo unspecified) | inactive | 
69 | Cc1ccccc1CN1CCN(S(=O)(=O)c2ccc(F)cc2)CC1 | inconclusive: 20.6 µM [cytotoxic, partial curve, poor fit] | 
70 | COCCn1c(Cc2ccccc2)nnc1SC(C)C(=O)NC1CC1 (stereo unspecified) | inconclusive: 32.6 µM [rising, single point] | 
71 | Cc1cc(N2CCN(c3ccccc3)CC2)n2cc(-c3ccccc3)nc2n1 | inconclusive: 20.6 µM [cytotoxic, partial curve, poor fit] | 

Some values from the list:
Entry of O=C(NCCOc1cccc(Oc2ccccc2)c1)c1cc(-n2cnnc2)ccc1Cl under Potency: active: 16.4 µM
Entry of COCc1cc(=O)n2c([nH]c3ccccc32)c1C#N under activity change, negative = cytotoxicity: inconclusive: 9.85%
